Measurements: the supplement of paper PMC3334620
Over roughly 33,000 sequences, “E-score (-0.5 to 0.5)” has its median near -0.016; the highest 2% begin near 0.3. This is one part of the list.

Target: T1, Yer184c (UniProt P39961)
T1 sequence: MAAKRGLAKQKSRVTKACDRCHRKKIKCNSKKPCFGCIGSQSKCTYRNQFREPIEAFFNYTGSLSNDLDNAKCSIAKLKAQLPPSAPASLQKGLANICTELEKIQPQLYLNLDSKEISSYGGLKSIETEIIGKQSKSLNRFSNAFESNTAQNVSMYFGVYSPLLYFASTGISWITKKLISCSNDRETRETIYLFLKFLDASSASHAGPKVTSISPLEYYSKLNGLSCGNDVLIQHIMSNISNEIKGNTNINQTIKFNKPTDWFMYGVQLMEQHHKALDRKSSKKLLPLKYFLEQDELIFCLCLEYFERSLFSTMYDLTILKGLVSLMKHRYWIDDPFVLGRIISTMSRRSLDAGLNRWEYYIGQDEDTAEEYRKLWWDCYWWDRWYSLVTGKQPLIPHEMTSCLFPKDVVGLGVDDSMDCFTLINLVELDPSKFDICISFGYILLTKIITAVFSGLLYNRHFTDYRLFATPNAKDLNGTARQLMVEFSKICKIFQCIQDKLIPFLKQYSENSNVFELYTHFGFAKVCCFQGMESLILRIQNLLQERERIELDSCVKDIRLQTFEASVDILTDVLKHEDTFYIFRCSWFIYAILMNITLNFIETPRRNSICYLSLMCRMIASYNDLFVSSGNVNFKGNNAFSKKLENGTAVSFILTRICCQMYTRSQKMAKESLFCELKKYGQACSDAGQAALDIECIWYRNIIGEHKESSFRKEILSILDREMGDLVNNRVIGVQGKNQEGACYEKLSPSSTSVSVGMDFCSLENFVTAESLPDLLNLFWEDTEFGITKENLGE
Experiment: PBM E-score (8-mer binding enrichment) (E-score (-0.5 to 0.5)); higher = stronger / more preferred TF binding
Conditions: protein concentration: 100 nM; construct: GST-full length
Procedure, shortened: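 Using PURExpress in vitro transcription/translation, GST-tagged yeast transcription factors were made in full-length or DNA-binding-domain form. These were applied at about 100-200 nM to double-stranded universal all-10-mer Agilent arrays, and bound protein was detected with fluorescent anti-GST. Scans were normalised with masliner before the Universal PBM Analysis Suite assigned E-scores to ungapped eight-base words pooled with their reverse complements.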

Sequence | PBM E-score
CCTGCCCA | -0.301
CCCTCATC | -0.315
CTGTAAAG | 0.113
CATGCGAA | 0.159
TTACAAAA | 0.172
ATAATCAC | 0.0615
GGCCCAGA | -0.241
AAGCCGAT | 0.356
CCGTGCTC | 0.132
CCTCGTCC | -0.2
CCTCTGAA | -0.181
ATATGTTC | 0.0761
GGTATGAC | -0.143
AGGTCATA | -0.118
CAGTCGAG | -0.21
GGACTAAC | -0.00306
ACATAAAT | 0.105
AAAGAATG | 0.251
AACCTCCT | -0.256
GACCTGGA | -0.194
AGTGGCCC | -0.153
CAATCCGA | 0.184

Sequence | PBM E-score
GCCCCACC | -0.13
AGCCTAAC | -0.019
AGAAGATC | -0.0839
CCCCGGGA | 0.119
ACTACCCA | -0.168
AAACCACC | -0.153
CCTGCGGC | -0.123
CCGAGCTC | 0.187
AGCAACAT | 0.0281
CCAGTGCA | -0.172
GGCAGCCA | -0.111
CCTTCTTA | -0.129
CAGATCCC | -0.21
ATAAGATC | -0.0275
CACAACCG | 0.254
CTACTTGA | -0.244
ATGTGGAC | -0.0649
GCTCTAGA | -0.207
ATGGACGA | 0.0399
ACCAAAAC | -0.00373
ACCGGGAG | -0.0778
ATGTCTCC | 0.0381

At a glance, some entries already given:
Sequence | PBM E-score
GGACTAAC | -0.00306
ACATAAAT | 0.105
AAAGAATG | 0.251
AACCTCCT | -0.256
GACCTGGA | -0.194
AGTGGCCC | -0.153
CAATCCGA | 0.184
GCCCCACC | -0.13
AGCCTAAC | -0.019
AGAAGATC | -0.0839
CCCCGGGA | 0.119
ACTACCCA | -0.168
AAACCACC | -0.153
CCTGCGGC | -0.123
CCGAGCTC | 0.187
AGCAACAT | 0.0281
CCAGTGCA | -0.172
GGCAGCCA | -0.111
CCTTCTTA | -0.129
CAGATCCC | -0.21
ATAAGATC | -0.0275
CACAACCG | 0.254
CTACTTGA | -0.244
ATGTGGAC | -0.0649
GCTCTAGA | -0.207
ATGGACGA | 0.0399

Later entries.

Sequence | PBM E-score
TAACACTA | 0.2
GGACCGGA | 0.297
AGGACCGG | 0.0759
GAATATCA | 0.0157
CGTGAAGA | 0.0142
CTGGACGC | -0.214
CATGCTGG | -0.295
ATCCAAGA | 0.162
CTCTGATC | -0.192
CGCCAAAA | 0.132
ACTTCGAC | 0.0831
GACGAGCA | -0.036
ACGACAGA | -0.0988
GTGGAATA | -0.00226
ACTCCGCG | 0.195
TGAGATAA | 0.0396
TATTCCAA | 0.115
TCGACCAA | -0.124
GTGGCGTA | -0.0523
GCGTAGAC | -0.149
CTGTTACC | -0.266
ACCGGCGC | 0.226

Sequence | PBM E-score
ATGTTGTG | 0.0995
AGGAACTG | -0.128
CATTCTTA | -0.0698
ACCGCCAA | -0.0895
ACAGTCAA | -0.00419
ACGTTACT | 0.0168
TCAAAGCA | 0.137
AACACAAA | 0.0539
CATTGTCG | 0.047
GCGAGCTA | -0.0608
AGAGTAAA | -0.00457
ATAGTAAC | 0.0738
GGACGCAA | -0.0521
ATGCGTCC | -0.0549
CGCTACGA | -0.0203
CGTGCCCC | -0.266
CACAGGAG | -0.0459
CTCGAACC | -0.0575
CTGTGTGC | -0.184
TAACAGTA | -0.131
